In PubChem BioAssay AID212 (DTP/NCI, 2004):
The list does not hold the whole screen: it covers a few groups of compounds. Not every dose and run of a compound is shown. T/C: endpoint of the treated group in % of that of the vehicle group. Schedule codes are those of the source, taken here to give the interval after Q, in days (D) or hours (H), and the number of doses after X. Some T/C values carry the count of animals alive at the toxicity check; where neither a count nor a note follows, no animal had died by that day. Some entries hold several experiments; their values stand side by side, smallest first. Some doses have a count of surviving animals in place of a T/C: the source files T/C as zero there, which appears to mark a toxic dose or a test without result, not a measured value. Survivors were counted at the toxicity check; its day is shown where the source gives one, and later deaths do not show.

System: BDF1 mice, colon carcinoma 38 sc, T/C %
Experiment: NCI In Vivo Anticancer Drug Screen. Data for tumor model Colon Carcinoma 38 (subcutaneous) in B6D2F1 (BDF1) mice
Settings: T/C endpoint: median tumor weight (est.), schedule: Q07DX002 (ip), higher T/C = larger tumour; for T/C: evaluated on day 20
Protocol: The antitumor activity of compounds was measured in mice bearing transplantable tumors. Survival or tumor size were measured and the results are expressed as the measurement made in the treated group (T) divided by the measurement made in the vehicle treated control group (C). The tumor model used in this assay is Colon Carcinoma 38 (subcutaneous) in B6D2F1 (BDF1) mice

[1] = dose: 25.0 mg/kg/injection, vehicle: saline
[2] = dose: 50.0 mg/kg/injection, vehicle: saline
[3] = dose: 100.0 mg/kg/injection, vehicle: saline
[4] = dose: 200.0 mg/kg/injection, vehicle: saline
[5] = dose: 800.0 mg/kg/injection, vehicle: saline

Row | SMILES | T/C (dose: 25.0 mg/kg/injection, vehicle: Klucel (hydroxypropylcellulose) (HPC)) | T/C (dose: 50.0 mg/kg/injection, vehicle: Klucel (hydroxypropylcellulose) (HPC)) | T/C (dose: 100.0 mg/kg/injection, vehicle: Klucel (hydroxypropylcellulose) (HPC)) | T/C (dose: 200.0 mg/kg/injection, vehicle: Klucel (hydroxypropylcellulose) (HPC)) | survivor count (dose: 400.0 mg/kg/injection, vehicle: Klucel (hydroxypropylcellulose) (HPC)) | T/C (dose: 6.25 mg/kg/injection, vehicle: saline) | T/C (dose: 12.5 mg/kg/injection, vehicle: saline) | T/C [1] | T/C [2] | T/C [3] | survivor count [4] | T/C [4] | T/C (dose: 400.0 mg/kg/injection, vehicle: saline) | T/C [5] | survivor count [5]
1 | CCCNC(=O)c1ccc(N(CCCl)CCCl)cc1 | 79 % of control | 75 [9 of 10 alive on day 20] and 171 % of control | 99 and 175 % of control | 66 and 136 % of control [9 of 10 alive] | 0 of 10 on day 20 |  |  |  |  |  |  |  |  |  | 
2 | C[As](C)SC1OC(CO)C(O)C(O)C1O (stereo not drawn) |  |  |  |  |  | 70 % of control | 72 and 88 % of control | 65 [9 of 10 alive on day 20] and 95 % of control | 54 and 81 % of control | 80 and 99 % of control [9 of 10 alive on day 20] | 0 of 10 on day 20 and 1 of 10 on day 20 |  |  |  | 
3 | CC1(C)CN1P(=O)(Nc1ncccn1)N1CC1(C)C (stereo not drawn) |  |  |  |  |  |  |  | 86 and 140 % of control | 67 [7 of 10 alive on day 20] and 117 % of control | 57 and 139 % of control |  | 77 and 88 % of control | 63 and 99 % of control [7 of 8 alive on day 20] | 52 % of control | 1 of 8 on day 20
